Substitutions are numbered along the chain they refer to. Names may count otherwise. These are yes or no findings as the source states them, for the method shown. In cells and extracts the contact can be indirect. Some binding calls cover weakened binding; strength is not graded here. Where a sequence is shown, tags or fusion partners need not be part of it.
Experiments:
[1] = target: mitochondrial RNA polymerase (POLRMT) (human (endogenous in HT1080)) (UniProt O00411); test: co-IP; extracts of isolated mitochondria of HT1080 cells incubated (30 min, 4°C) with antibodies (3 µg) against POLRMT or YFP; immune complexes isolated with µMACS Protein A/G microBeads or µMACS GFP-tagged Protein Isolation Kit; probed with antibodies against POLRMT, TFAM, YFP or TOP1MT
[2] = target: T1, MY-TOP1MT (human mitochondrial topoisomerase I with YFP appended to its N-terminus and a mitochondrial targeting sequence attached N-terminally to YFP) (human) (UniProt Q969P6); test: as above
T1 sequence: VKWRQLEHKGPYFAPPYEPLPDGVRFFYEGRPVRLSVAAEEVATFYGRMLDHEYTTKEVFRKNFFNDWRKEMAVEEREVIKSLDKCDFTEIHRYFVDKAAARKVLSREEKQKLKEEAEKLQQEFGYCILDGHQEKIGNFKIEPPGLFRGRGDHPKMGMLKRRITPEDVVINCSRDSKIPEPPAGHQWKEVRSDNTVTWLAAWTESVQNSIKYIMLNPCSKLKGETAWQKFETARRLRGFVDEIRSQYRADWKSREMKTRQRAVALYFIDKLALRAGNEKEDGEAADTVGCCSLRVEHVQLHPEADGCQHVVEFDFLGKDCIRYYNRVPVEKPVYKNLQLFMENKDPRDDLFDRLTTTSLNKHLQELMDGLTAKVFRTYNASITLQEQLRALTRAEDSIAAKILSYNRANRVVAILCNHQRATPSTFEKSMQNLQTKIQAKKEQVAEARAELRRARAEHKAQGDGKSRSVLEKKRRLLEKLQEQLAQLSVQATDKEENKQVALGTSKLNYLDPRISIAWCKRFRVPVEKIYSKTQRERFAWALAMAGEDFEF

Chains of the proteins cited; added tags and fusions are not shown. Residues count along the entry.
UniProt O00411, residues 42-1230: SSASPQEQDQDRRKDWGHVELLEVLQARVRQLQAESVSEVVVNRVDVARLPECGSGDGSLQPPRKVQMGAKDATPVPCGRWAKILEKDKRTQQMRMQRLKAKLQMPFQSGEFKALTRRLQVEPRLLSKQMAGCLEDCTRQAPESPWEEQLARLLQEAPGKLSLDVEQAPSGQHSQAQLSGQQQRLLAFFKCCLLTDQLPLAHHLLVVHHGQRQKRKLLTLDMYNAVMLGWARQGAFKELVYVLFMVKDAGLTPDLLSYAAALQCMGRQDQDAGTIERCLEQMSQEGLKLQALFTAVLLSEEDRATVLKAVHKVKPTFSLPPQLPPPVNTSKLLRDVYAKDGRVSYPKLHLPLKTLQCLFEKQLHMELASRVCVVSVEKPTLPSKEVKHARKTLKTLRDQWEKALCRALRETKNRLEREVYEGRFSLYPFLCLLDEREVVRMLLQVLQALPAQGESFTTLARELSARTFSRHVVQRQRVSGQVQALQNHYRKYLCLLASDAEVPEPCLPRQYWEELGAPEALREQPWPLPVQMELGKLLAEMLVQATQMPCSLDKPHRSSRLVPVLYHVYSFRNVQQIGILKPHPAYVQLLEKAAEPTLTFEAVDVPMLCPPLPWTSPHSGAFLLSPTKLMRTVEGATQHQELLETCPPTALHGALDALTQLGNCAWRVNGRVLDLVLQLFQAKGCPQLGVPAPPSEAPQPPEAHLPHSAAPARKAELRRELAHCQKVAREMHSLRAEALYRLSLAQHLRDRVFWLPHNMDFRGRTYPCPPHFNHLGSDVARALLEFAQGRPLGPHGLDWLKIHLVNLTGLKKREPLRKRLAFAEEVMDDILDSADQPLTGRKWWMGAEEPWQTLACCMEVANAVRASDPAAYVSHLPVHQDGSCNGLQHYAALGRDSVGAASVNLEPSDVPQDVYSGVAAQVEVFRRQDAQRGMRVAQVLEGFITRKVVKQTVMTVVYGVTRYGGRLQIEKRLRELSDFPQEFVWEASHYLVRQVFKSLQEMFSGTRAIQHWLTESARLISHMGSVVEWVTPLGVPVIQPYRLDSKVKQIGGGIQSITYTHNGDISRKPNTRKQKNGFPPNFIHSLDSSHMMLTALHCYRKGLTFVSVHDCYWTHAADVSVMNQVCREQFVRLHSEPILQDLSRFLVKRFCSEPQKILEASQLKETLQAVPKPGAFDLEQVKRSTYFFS

B1: MY-TOP1MT (human mitochondrial topoisomerase I with YFP appended to its N-terminus and a mitochondrial targeting sequence attached N-terminally to YFP) (enzyme, UniProt Q969P6 51-601)
chain: T1 sequence
[1]
  binding: binds

B2: MY-TOP1MT^Y559F (inactive Y559F mutant of human mitochondrial topoisomerase I with N-terminal MTS and YFP) (enzyme, UniProt Q969P6 51-601)
chain: T1 sequence with Y509F
[1]
  binding: binds

B3: mitochondrial transcription factor A (TFAM) (protein, UniProt Q00059 43-246)
chain: SSVLASCPKKPVSSYLRFSKEQLPIFKAQNPDAKTTELIRRIAQRWRELPDSKKKIYQDAYRAEWQVYKEEISRFKEQLTPSQIMSLEKEIMDKHLKRKAMTKKKELTLLGKPKRPRSAYNVYVAERFQEAKGDSPQEKLKTVKENWKNLSDSEKELYIQHAKEDETRYHNEMKSWEEQMIEVGRKDLLRRTIKKQRKYGAEEC
[2]
  binding: no binding
